Measured values reported in PMC7819943, “Rice protein-binding microarrays: a tool to detect cis-acting elements near promoter regions in rice”.
Some of the results follow.

Protein sequences, listed by entry. Tags and fused reporters are not part of them.
UniProt Q0JBA9, entry or part of it: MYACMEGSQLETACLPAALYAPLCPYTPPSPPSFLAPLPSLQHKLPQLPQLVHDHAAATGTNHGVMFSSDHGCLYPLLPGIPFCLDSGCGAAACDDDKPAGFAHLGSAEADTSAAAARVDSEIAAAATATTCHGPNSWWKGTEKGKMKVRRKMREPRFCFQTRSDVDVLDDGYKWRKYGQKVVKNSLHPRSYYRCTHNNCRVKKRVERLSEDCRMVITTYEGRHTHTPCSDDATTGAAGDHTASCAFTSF

Each sequence was assayed against OsWRKY34 (Oryza sativa, UniProt Q0JBA9 1-250) (assay: protein-binding microarray (RPBM); PBS, 2% BSA, 51.3 ng/ul salmon testes DNA, 50 uM zinc acetate, 200 nM TF, 25 C, 1 h; high values mean tight binding). Conditions: protein: recombinant; tags: N-terminal polyhistidine and DsRed monomer fusion (pET32a); label: CyDye5-dUTP incorporated in the synthesized complementary strand; 3' TTTTT single-stranded linker to array surface; dsDNA, one strand shown.
Procedure, shortened: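 The binding signal is fluorescence intensity per feature, in arbitrary units, read on an Axon 4000B scanner. Polyhistidine- and DsRed-tagged transcription factors (N-terminal fusions) from E. coli BL21-CodonPlus were purified on Ni–NTA and applied at 200 nM for 1 h at 25 °C to a double-stranded, BSA-blocked custom Agilent array in buffer with 50 µM zinc acetate.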

Question: How did the binding signal turn out when “TGCGAGTTCGTCGCCGCCTCCGCCGATCTCCATCAGGCGACGGAGTCACCTAGTGCAG” was run?
Answer: 9610 fluorescence intensity (a.u.)

Question: “GGTCGCTGCCGCTATCAACACCAACAAACACCGCGCCTCGCGGAGTCACCTAGTGCAG” was tested. Which binding signal did it give?
Answer: 9850 fluorescence intensity (a.u.)

Question: Which binding signal does the source give for “CCACAAACATATATGCCTTTTAAATGTTCCTACATGCAAGCGGAGTCACCTAGTGCAG” here?
Answer: 8260 fluorescence intensity (a.u.)

Question: With “CCCCTCGCCGGCCGTCGCGCTCTCGAAGCCGTACGCTGTTCGGAGTCACCTAGTGCAG” as the sequence, how does the binding signal read?
Answer: 9210 fluorescence intensity (a.u.)

Question: For “ATCGAGCAGGTTTCCCCAAATCTTAGGGTTAGGGTTTCGTCGGAGTCACCTAGTGCAG”, which binding signal is on record?
Answer: 9810 fluorescence intensity (a.u.)

Question: With “GTACCATTAATGCAATTTATTCATCATGTATAATACTATTCGGAGTCACCTAGTGCAG” as the sequence, how does the binding signal read?
Answer: 8940 fluorescence intensity (a.u.)

Question: Which binding signal does the source give for “GTGTCTGAGTACTGTTATCCACCTGTAATATTTTGATTTTCGGAGTCACCTAGTGCAG” here?
Answer: 9200 fluorescence intensity (a.u.)

Question: Which binding signal does the source give for “TTTATTTTTTTTGTTACTTTTGGGATAAATTTACAATTACCGGAGTCACCTAGTGCAG” here?
Answer: 9060 fluorescence intensity (a.u.)

Question: With “CCCACATCCATCTCCTCCATCTCACCAAACCAACACACCACGGAGTCACCTAGTGCAG” as the sequence, how does the binding signal read?
Answer: 9180 fluorescence intensity (a.u.)

Question: Which binding signal does the source give for “GCAGGTCCTCCATCAACGTCGCCGTACGTGTTCCGCCGGCCGGAGTCACCTAGTGCAG” here?
Answer: 8190 fluorescence intensity (a.u.)

Question: How did the binding signal turn out when “CATCGCCCGCGCGCGCGCCCGCCTCGACGCCGCCGCCGCCCGGAGTCACCTAGTGCAG” was run?
Answer: 10100 fluorescence intensity (a.u.)

Question: How did the binding signal turn out when “AAGACCACCGTCGACCTTTCCTCATCTCACCCGTCACTACCGGAGTCACCTAGTGCAG” was run?
Answer: 10100 fluorescence intensity (a.u.)

Question: “CTGGAAGCAACCAAAGATGGAGGATGGGGTTTTGTGGTACCGGAGTCACCTAGTGCAG” was tested. Which binding signal did it give?
Answer: 8180 fluorescence intensity (a.u.)

Question: For “AATCGCCGTTCTAGCTTTTTGGTCTTGGTCTTTTTTTATCCGGAGTCACCTAGTGCAG”, which binding signal is on record?
Answer: 21400 fluorescence intensity (a.u.)

Question: For “CCTAAATGGTTTTGCTTGGACACTTCTGGTTACCTTGCATCGGAGTCACCTAGTGCAG”, which binding signal is on record?
Answer: 11900 fluorescence intensity (a.u.)

Question: “CTGAAGAGGCGGAGGGGTTGGGATCGAGGTAATTGGGGCTCGGAGTCACCTAGTGCAG” was tested. Which binding signal did it give?
Answer: 8890 fluorescence intensity (a.u.)

Question: For “CTGACTGGGTAGGAGGAAGGTGGAGGTGGGGAGGATGCGGCGGAGTCACCTAGTGCAG”, which binding signal is on record?
Answer: 13600 fluorescence intensity (a.u.)

Question: “TTTGCCATGATTTCCCACCCATCTTTAAATCCTAACAATTCGGAGTCACCTAGTGCAG” was tested. Which binding signal did it give?
Answer: 8190 fluorescence intensity (a.u.)

Question: How did the binding signal turn out when “CCGCCGCCGCCGTTTTCTCCCGTCGTACGACGCTGCGTGTCGGAGTCACCTAGTGCAG” was run?
Answer: 9980 fluorescence intensity (a.u.)

Question: For “AATCTATCACGTCACACTATGAACAATCTGCCACGTCACACGGAGTCACCTAGTGCAG”, which binding signal is on record?
Answer: 8430 fluorescence intensity (a.u.)

Question: With “TGTTCCACCGTACCATTTCCCATTGGTAGTGTCATTTCCCCGGAGTCACCTAGTGCAG” as the sequence, how does the binding signal read?
Answer: 8900 fluorescence intensity (a.u.)

Question: “CCGTCTCGTCTCCTCCGCTACTTGCGCCATCCTCGGCTGACGGAGTCACCTAGTGCAG” was tested. Which binding signal did it give?
Answer: 8220 fluorescence intensity (a.u.)

Question: For “AGTTGGTTACCCTGTTGTTGTCCGGCCTTCGTATGTTCTTCGGAGTCACCTAGTGCAG”, which binding signal is on record?
Answer: 11900 fluorescence intensity (a.u.)

Question: Which binding signal does the source give for “GGGTGTTTTCAGACGGAGAGAGGCGGCGGCGGCGGCGGGGCGGAGTCACCTAGTGCAG” here?
Answer: 18500 fluorescence intensity (a.u.)

Question: How did the binding signal turn out when “GGTTGAATGCAACTTCAAGTGGGCGAATTTGCAAACATTCCGGAGTCACCTAGTGCAG” was run?
Answer: 8690 fluorescence intensity (a.u.)

Question: “ATAGGATTGTTTCATGTGTTCAATTATCATCATAAATCTTCGGAGTCACCTAGTGCAG” was tested. Which binding signal did it give?
Answer: 8650 fluorescence intensity (a.u.)

Question: For “TGAACCACATGCTATTCAATATTATGTCATACATGCTGTCCGGAGTCACCTAGTGCAG”, which binding signal is on record?
Answer: 8800 fluorescence intensity (a.u.)

Question: With “TGTCTACATACGCTCAATCCATTATTCCCCTATTACATCACGGAGTCACCTAGTGCAG” as the sequence, how does the binding signal read?
Answer: 9500 fluorescence intensity (a.u.)

Question: For “GTACTCGTACTTCTCTTCTTGTCATCTTGACCGTCCGTCCCGGAGTCACCTAGTGCAG”, which binding signal is on record?
Answer: 9270 fluorescence intensity (a.u.)

Question: With “CGTAAGCCATCCACGCACCACCCCATAAAATTTGAGATCCCGGAGTCACCTAGTGCAG” as the sequence, how does the binding signal read?
Answer: 8710 fluorescence intensity (a.u.)

Question: How did the binding signal turn out when “GTGATCGCTGGTTTATCTAGCTGTGACTAGTCACGTCCATCGGAGTCACCTAGTGCAG” was run?
Answer: 8540 fluorescence intensity (a.u.)

Question: Which binding signal does the source give for “TAGCTTGGTGGTAAGGAAGGTTAGGGGCTATTTCTCCAATCGGAGTCACCTAGTGCAG” here?
Answer: 10100 fluorescence intensity (a.u.)

Question: With “ATCACACCACCTGATCGTTTCCTCTCACCGTGGCGCGGCTCGGAGTCACCTAGTGCAG” as the sequence, how does the binding signal read?
Answer: 9940 fluorescence intensity (a.u.)

Question: With “TACTCATGGATGCCACCGTGTCTGCACGAATTTCCCTACCCGGAGTCACCTAGTGCAG” as the sequence, how does the binding signal read?
Answer: 9100 fluorescence intensity (a.u.)

Question: Which binding signal does the source give for “AATCTCAGCCATCCGTTTTCATTAATGATCTAATCTCCAACGGAGTCACCTAGTGCAG” here?
Answer: 11300 fluorescence intensity (a.u.)

Question: “GGTAATATTAGTTGGTGTCCTGCCTTTACAATTATACGAACGGAGTCACCTAGTGCAG” was tested. Which binding signal did it give?
Answer: 8430 fluorescence intensity (a.u.)

Question: “CCCGTCTCTCTCGCTACCCATCGGCTCCACCGCTACCCTCCGGAGTCACCTAGTGCAG” was tested. Which binding signal did it give?
Answer: 10800 fluorescence intensity (a.u.)

Question: Which binding signal does the source give for “TGTCAGGCTGATACGTGCGTCTGATTTTTTCTATCTCCATCGGAGTCACCTAGTGCAG” here?
Answer: 8340 fluorescence intensity (a.u.)

Question: How did the binding signal turn out when “TAATATTGTATCATGTTTTTATCATATTCATATTCATTTACGGAGTCACCTAGTGCAG” was run?
Answer: 8930 fluorescence intensity (a.u.)

Question: “TGGTTCGCTCGGTGGGTGGTGGTGGTTCTGTGAGCCCGCGCGGAGTCACCTAGTGCAG” was tested. Which binding signal did it give?
Answer: 18400 fluorescence intensity (a.u.)

Question: “TGTGCGCACGCTTTTCAAATTGTTAAATGGTGTGTTTTTTCGGAGTCACCTAGTGCAG” was tested. Which binding signal did it give?
Answer: 8970 fluorescence intensity (a.u.)

Question: For “CTTCGCTCTTGGATTTCTTTACTTCTACGGTTCTTACTACCGGAGTCACCTAGTGCAG”, which binding signal is on record?
Answer: 11000 fluorescence intensity (a.u.)
